PubChem BioAssay AID686938 | Drosophila RNAi Screening Center, 2013
Assay: 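Fly genes required for calcium entry once internal stores are emptied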 (primary screen). System: Drosophila S2R+ cells. Reagent: long dsRNA against Drosophila genes, about 0.25 µg dsRNA per well, roughly 10,000 cells. Time to read-out: 5 days of knock-down before the calcium assay. Conditions: thapsigargin (SERCA pump blocker) to empty calcium stores; entry signal taken 4 min after adding it. Detection: 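Per-well fluo-4 fluorescence in two replicates, unnormalised, measured in resting cells and 4 min after store depletion by the SERCA blocker thapsigargin; ratio of the two present in few wells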. Reading the numbers: calcium entry signal: higher = stronger calcium signal after store depletion; entry to resting ratio: higher = more calcium entry relative to resting level; resting calcium signal: higher = higher resting calcium signal. Rule for the call: 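Called when the plate z-score of the entry-to-rest ratio, mean of duplicates, falls below −3; wells with low overall dye signal (Fmax z below −2) or more than five off-targets excluded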. Meaning of the calls: active = strongly reduced calcium entry; inactive = no strong reduction.
The screen tested about 23,000 reagents; below is an unselected part of those that have a named target and a result. Over the whole deposit, 75 (0.33%) were called active. 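Raw plate signals without normalisation; calls rest on plate z-scores that were not deposited; ratio present for only 364 wells.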 Unmarked entries are inactive. Reagents against one gene are numbered here. A plus sign joins genes that one reagent is predicted to hit. The record does not give: the dose of the treatment.

gene,reagent no.,"calcium entry signal, replicate 1 (fluorescence units)","calcium entry signal, replicate 2 (fluorescence units)",entry to resting ratio,"resting calcium signal, replicate 1 (fluorescence units)","resting calcium signal, replicate 2 (fluorescence units)"
CR32011 + CR32010 + PlexB + 1 more,1,3.70e7,4.24e7,,2.19e7,1.99e7
CG13747,1,4.61e7,3.42e7,,1.87e7,1.57e7
Pdh,1,4.29e7,5.24e7,,2.04e7,3.53e7
CG3038,1,3.83e7,5.96e7,2.1,1.85e7,2.62e7
CG31098,1,3.28e7,4.19e7,,1.87e7,1.94e7
Samuel,1,2.84e7,4.24e7,,1.50e7,1.77e7
Samuel,2,3.97e7,3.25e7,,1.91e7,1.56e7
Samuel,3,3.89e7,6.82e7,,1.83e7,2.73e7
Samuel,4,2.21e7,2.95e7,,1.26e7,1.40e7
Samuel,5,4.82e7,3.14e7,,2.34e7,1.49e7
CG7530,1,2.81e7,3.55e7,,1.36e7,1.72e7
Fbxl4,1,2.77e7,3.50e7,,1.40e7,1.60e7
CG10183,1,3.46e7,4.97e7,,1.63e7,1.86e7
CG8475,1,4.31e7,,,2.51e7,
lectin-28C,1,2.48e7,3.47e7,,1.23e7,1.58e7
Ser6,1,3.69e7,4.22e7,,2.00e7,1.96e7
yellow-c + CIAPIN1,1,3.73e7,2.25e7,,1.72e7,1.11e7
sturkopf,1,2.95e7,2.75e7,,1.34e7,1.36e7
CG31221,1,3.98e7,4.58e7,,5.53e7,2.20e7
CG31221,2,4.31e7,4.96e7,,5.41e7,2.49e7
RpL27A,1,1.15e7,1.05e7,,8.47e6,7.33e6
CG9813,1,3.13e7,3.85e7,,1.43e7,1.73e7
CG11353,1,6.17e7,4.68e7,,3.82e7,1.80e7
RhoGAP68F,1,5.36e7,4.19e7,,3.56e7,1.70e7
CG42663,1,3.64e7,4.09e7,,1.89e7,1.90e7
CG42663,2,3.39e7,5.17e7,,1.65e7,2.21e7
upSET,1,1.75e7,2.72e7,,1.04e7,2.17e7
upSET,2,4.33e7,4.16e7,,1.90e7,1.68e7
CG43777 + CG43776 + CG43775,1,3.34e7,4.22e7,,1.73e7,1.92e7
NimB1,1,4.40e7,,,2.03e7,
apt,1,3.90e7,,,1.95e7,
apt,2,4.99e7,3.40e7,,2.28e7,1.45e7
hoka,1,3.34e7,7.68e7,,1.49e7,2.78e7
CG42709,1,4.95e7,3.85e7,,3.31e7,1.68e7
CG30062,1,3.08e7,3.64e7,,1.64e7,1.70e7
CG7963,1,3.76e7,3.26e7,,1.84e7,1.53e7
CG8661,1,3.76e7,3.51e7,,2.02e7,1.52e7
CG14492,1,3.77e7,3.72e7,,1.65e7,1.83e7
Eip93F,1,2.49e7,2.51e7,,1.25e7,1.20e7
Eip93F,2,4.09e7,5.55e7,,7.53e7,2.63e7
Eip93F,3,3.07e7,3.29e7,,1.47e7,1.58e7
Eip93F,4,3.57e7,3.54e7,,1.69e7,1.45e7
Pk34A,1,4.57e7,3.25e7,,2.11e7,1.57e7
CG14857,1,3.33e7,4.85e7,,1.64e7,7.11e7
CG4835,1,3.25e7,4.57e7,,1.71e7,2.27e7
RunxB,1,3.26e7,4.12e7,,1.63e7,1.82e7
RunxB,2,5.31e7,4.50e7,,2.49e7,1.98e7
RunxB,3,3.26e7,3.46e7,,2.11e7,1.90e7
RunxB,4,3.78e7,3.15e7,,2.38e7,1.44e7
CG34196,1,2.66e7,3.10e7,,1.28e7,1.48e7
CG13685,1,3.49e7,5.32e7,,1.70e7,2.40e7
CSN4,1,2.68e7,2.42e7,,1.30e7,1.37e7
Snx17,1,5.06e7,,,2.53e7,
Trmt61,1,3.98e7,5.19e7,,2.16e7,2.07e7
CG3719,1,4.43e7,3.06e7,,2.34e7,1.67e7
sip1,1,2.83e7,3.28e7,,1.46e7,1.45e7
sip1,2,4.04e7,3.46e7,,2.56e7,1.74e7
GPHR,1,3.25e7,4.06e7,,1.58e7,2.04e7
